Data source: PubChem BioAssay AID504793 (Drosophila RNAi Screening Center, 2011)
The screen tested about 23,000 reagents; shown is an unselected part of those with a known target gene and a result. In the full data, 62 (0.27%) got an active call. 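Calls come from follow-up tests whose scores are not deposited, so confirmed genes may have low counts here; counts are not normalised per plate.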 The raw values are shown without normalisation. Unmarked entries are inactive. No sequences are given here.

- Screen: 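Knock-downs allowing continued mitosis even though DNA is damaged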 (primary screen)
- Cell system: Drosophila S2R+ cells
- Reagents: long dsRNA against Drosophila genes, about 0.25 µg dsRNA per well
- Timing: 4 days of dsRNA, then 4 hours of drug before read-out
- Conditions: doxorubicin 0.5 µM for 4 hours to cause double-strand breaks, in cells also given a low, harmless dose of dsRNA against nbs to sensitise the assay
- Detection: 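Mitotic index as the number of phospho-histone H3-positive cells in each well following doxorubicin, given as raw counts without normalisation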
- Reading the numbers: mitotic cells: higher = more cells in mitosis, weaker G2 arrest
- Active means: 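Genes are called active only when high mitotic counts were reproduced with independent dsRNAs and mitosis was checked for delay without damage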
- Calls: active = confirmed in follow-up tests; inactive = not confirmed

hd (humpty dumpty) [SID104192108]
- mitotic cells, replicate 1: 6

hd (humpty dumpty) [SID104204846]
- mitotic cells, replicate 1: 5

CG12862 [SID104185994]
- mitotic cells, replicate 1: 14

nesd (nessun dorma) [SID104181891]
- mitotic cells, replicate 1: 6

nesd (nessun dorma) [SID104206323]
- mitotic cells, replicate 1: 2

CG7423 [SID104199836]
- mitotic cells, replicate 1: 10

Gr8a (Gustatory receptor 8a) [SID104197835]
- mitotic cells, replicate 1: 11

2 entries from above in another layout.
{"target": "CG12862", "PubChem SID": "SID104185994", "mitotic cells, replicate 1": 14}
{"target": "nesd (nessun dorma)", "PubChem SID": "SID104181891", "mitotic cells, replicate 1": 6}

Continued.
Rab32 [SID104184938]
- mitotic cells, replicate 1: 2

Rab32 [SID104187314]
- mitotic cells, replicate 1: 6

Rab32 [SID104206700]
- mitotic cells, replicate 1: 7

atms (antimeros) [SID104192102]
- mitotic cells, replicate 1: 3

atms (antimeros) [SID104206046]
- mitotic cells, replicate 1: 5

Gr89a (Gustatory receptor 89a) [SID104194815]
- mitotic cells, replicate 1: 5

CG31524 [SID104201602]
- mitotic cells, replicate 1: 4

CG31524 [SID104207543]
- mitotic cells, replicate 1: 5
